## Screening data, single-dose tests

Measurements from “University of Dundee, Small-Polar-MMV Screening Library” (2021), ChEMBL document CHEMBL3988442.

The filed quantity is “Percent Effect” (%).
The controls that fix the scale are not given in the record; negative values are as filed.
This is an unselected part of the compounds tested.

Mtb glucose medium: 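Phenotypic screen: M. tuberculosis growth, glucose 7H9 medium, 3 days; the read-out is not stated. Tested at 500 µM. The record gives no direction; compounds that gave an IC50 in retests scored well above the rest, so higher reads as more growth inhibition. About 18,000 compounds were tested under these conditions; 7.9% (about 1,400) showed 50% or more at least once.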
Mtb cholesterol medium: 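Phenotypic screen: M. tuberculosis growth, cholesterol and DPPC medium, 4 days; the read-out is not stated. Concentration: 500 µM. The record gives no direction; compounds that gave an IC50 in retests scored well above the rest, so higher reads as more growth inhibition. About 18,000 compounds were tested under these conditions; 5% (about 900) showed 50% or more at least once.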

structure	Mtb glucose medium	Mtb cholesterol medium
COc1ccnc(N2CCN(c3ccccn3)CC2)n1	6.751	-1.867
CC1(C)C(=O)CCCN1Cc1ccccc1	-4.551	0.2113
CCS(=O)(=O)N1CCC2(CC1)OCCO2	3.075	12.37
CCSc1nnc(-c2cccc(C)c2)n1CC(N)=O	-2.362	-10.13
CN1CCCN(C(=O)c2ccccc2I)CC1	17.84	10.93
CN1CCC(OCCCNC(=O)c2ccncc2)CC1	-13.57	-5.913
O=C(CSc1ccc(F)cc1)N1CCC1	58.22	60.58
CCc1sc(C(=O)OCC(=O)N2CCNC2=O)cc1C	-0.5041	-16.72
CNC(=O)CCN1CCSC2(CCCCC2)C1	18.89	20.32
CCOCCN1CCN(CCc2ccncc2)CC1	7.033	1.944
NCc1cccc(C(=O)NCC2CCCO2)c1 (centres unmarked)	23.24	-13.2
CN(C)C(=O)CSc1nc2ccccc2n1C	-1.017	-10.14
O=C(NCCCn1cccn1)c1ccccc1O	47.96	32.15
OCC(c1ccc(Cl)cc1)N1CCNCC1 (centres unmarked)	21.71	21.61

Once more, the final 2:

* O=C(NCCCn1cccn1)c1ccccc1O : Mtb glucose medium: 47.96%; Mtb cholesterol medium: 32.15%
* OCC(c1ccc(Cl)cc1)N1CCNCC1 (centres unmarked) : Mtb glucose medium: 21.71%; Mtb cholesterol medium: 21.61%